# “And” between values parts separate entries of the source, which are not always exact repeats. Identical values can stand only once. Counter-ions that a name gives are not always drawn. The list shows a part of the results. Repeats in this data set agree poorly, so a single value says little.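 The human kidney-derived cells carry a stably integrated construct of eight TEAD-binding elements driving luciferase, read by luminescence in a drug-repurposing library screen. A compound counts as a hit when its signal is more than five robust Z scores above the plate mean.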
# System: HEK293A TEAD-LUC reporter
# Experiment: TEAD-luciferase reporter activity (YAP activation), robust Z score vs plate; higher = stronger YAP/TEAD activation
# Conditions: 24 h
Compound,TEAD-luciferase reporter activity (compound concentration: 200 nM),TEAD-luciferase reporter activity (compound concentration: 2 uM),TEAD-luciferase reporter activity (compound concentration: 10 uM)
CCCCCCCOC(=O)NC1=NC(=O)N(C2C[C@H](O)[C@@H](CO)O2)CN1 (stereo partly drawn),inactive: -0.856,inactive: -0.64,inactive: 0.42
CN1C(=O)NC(=O)C1O (stereo not drawn),inactive: -0.845,inactive: -1.13 and inactive: -0.571,inactive: 0.864
CC#C[C@]1(O)CC[C@H]2[C@@H]3CCC4=CC(=O)CCC4=C3[C@@H](c3ccc(N(C)C)cc3)C[C@@]21C,inactive: -0.408,,inactive: -0.402
CC#C[C@]1(O)CC[C@H]2[C@@H]3CCC4=CC(=O)CCC4=C3[C@@H](c3ccc(N(C)C)cc3)C[C@@]21C [mifepristone],,inactive: 0.262,
COc1cc(NCCCC(C)N)c2ncccc2c1 (stereo not drawn),inactive: -1.04,inactive: -1.09,inactive: -1.22
O=C(/C=C/c1ccc(Cl)cc1)N[C@@H](Cc1ccccn1)C(=O)NCC(=O)N1CCC(Oc2cc(C(F)(F)F)ncn2)CC1,inactive: -0.519,inactive: -1.11,inactive: 1.22
COC(=O)[C@]12CCC(C)(C)C[C@H]1[C@H]1C(=O)C=C3[C@@]4(C)C=C(C#N)C(=O)C(C)(C)[C@@H]4CC[C@@]3(C)[C@]1(C)CC2 [bardoxolone methyl],,inactive: -2.88,
COC(=O)[C@]12CCC(C)(C)C[C@H]1[C@H]1C(=O)C=C3[C@@]4(C)C=C(C#N)C(=O)C(C)(C)[C@@H]4CC[C@@]3(C)[C@]1(C)CC2 [Bardoxolone Methyl],inactive: 0.856,,inactive: -3.65
CCC1OC(=O)C(C)C(OC2CC(C)(OC)C(O)C(C)O2)C(C)C(OC2OC(C)CC(N(C)C)C2O)C(C)(O)CC(C)CN(C)C(C)C(O)C1(C)O (stereo not drawn) [azithromycin],inactive: -1.61,inactive: 0.301,inactive: 0.842
CC(=O)SC[C@H](Cc1ccccc1)C(=O)NCC(=O)OCc1ccccc1 [Dexecadotril],inactive: 0.376,inactive: -0.645,inactive: -0.326
Cc1cc2[nH]cc(C(=O)Nc3ccc(N4CCC(C)(C)C4)cc3C(F)(F)F)c(=O)n2c1,inactive: -1.02,inactive: -1.26,inactive: -0.395
CC(O)c1cc(C(=O)N[C@@H](C)Cn2ccc(-c3ccc(C#N)c(Cl)c3)n2)n[nH]1 (stereo partly drawn),inactive: -1.65,inactive: -0.259,inactive: 0.584
O=C(Nc1ccc(O)c(O)c1)c1cccc(O)c1O,inactive: -1.13,inactive: -1.32,inactive: -1.58
CCC[C@H](Nc1nc(-c2ccc(NC(=O)NCC)c(OC)c2)ncc1C)c1cccnc1 [Lexibulin hydrochloride],inactive: 2.41,inactive: 2.14,active: 7.36
[Cl][Ru-3]([Cl])([Cl])([Cl])([n+]1cc2ccccc2[nH]1)[n+]1cc2ccccc2[nH]1.c1ccc2[nH][nH+]cc2c1,inactive: -0.839,inactive: 0.823,inactive: 0.722
Cc1cc(C#N)cc(C)c1Oc1nc(Nc2ccc(C#N)cc2)nc(N)c1Br [etravirine],inactive: -0.592,inactive: 0.0684,inactive: -0.166
COc1ccc2cc(C(C)C(=O)Oc3ccc(C(N)=S)cc3)ccc2c1 (stereo not drawn),inactive: -1.05,inactive: -0.0798,inactive: -0.378
O=C([O-])c1ccc2nc(C(=O)NC3CCN(C4CC4)CC3)n(Cc3cc(-c4ccc(Cl)s4)on3)c2c1,inactive: -1.31,inactive: -1.07,inactive: -1.94
CCCCCCCOc1ccccc1NC(=O)OC(C)CN(CC)CC (stereo not drawn) [carbisocaine],inactive: -1.11,inactive: -0.222,inactive: 1.75
CO[C@H]1/C=C\O[C@@]2(C)Oc3c(C)c(O)c4c(c3C2=O)C2=NC3(CCN(CC(C)C)CC3)NC2=C(NC(=O)/C(C)=C\C=C/[C@H](C)[C@H](O)[C@@H](C)[C@@H](O)[C@@H](C)[C@H](OC(C)=O)[C@@H]1C)C4=O [Rifabutin (Mycobutin)],inactive: -2.41,,inactive: -0.00677
CO[C@H]1/C=C\O[C@@]2(C)Oc3c(C)c(O)c4c(c3C2=O)C2=NC3(CCN(CC(C)C)CC3)NC2=C(NC(=O)/C(C)=C\C=C/[C@H](C)[C@H](O)[C@@H](C)[C@@H](O)[C@@H](C)[C@H](OC(C)=O)[C@@H]1C)C4=O [rifabutin],,inactive: -1.59,
O=C(c1ccccn1)N1CCN(Cc2ccccc2)CC1 [piberaline],inactive: -1.12,inactive: -0.748,inactive: -0.117
CCCCCCCO[C@@H]1[C@H]2OC(C)(C)O[C@H]2O[C@@H]1C(O)CNCc1ccccn1 (stereo partly drawn),inactive: 1.04,inactive: -1.21,inactive: -1.47
O=C(O)c1n[nH]c2c1C[C@H]1C[C@@H]21,inactive: -0.228,inactive: -2,inactive: 0.493
CC(=O)N1CC2(Cc3ccccc31)CN(C(=O)c1ccccc1Cl)C2,inactive: -0.0619,,inactive: -1.35
COc1ccc(-c2nc(N3CCOCC3)c3sc(CN(C)c4ncc(C(=O)NO)cn4)cc3n2)cn1,inactive: 0.0837,active: 16.9,active: 25.4

Compound,TEAD-luciferase reporter activity (compound concentration: 200 nM),TEAD-luciferase reporter activity (compound concentration: 2 uM),TEAD-luciferase reporter activity (compound concentration: 10 uM)
C[C@H](Cc1ccc(-c2ncc(NC(=O)C(F)(F)F)o2)cc1)N1CC(c2cccc(Cl)c2)OC1=O (stereo partly drawn),inactive: 0.654,inactive: 0.739,inactive: 0.26
CCC(=O)c1ccc(OCC(O)CN2CCN(c3ccccc3)CC2)cc1 (stereo not drawn) [Centpropazine],inactive: -1.3,inactive: -0.713,inactive: -1.1
CC[C@@H]1/C=C(\C)C[C@H](C)C[C@H](OC)[C@H]2O[C@@](O)(C(=O)C(=O)N3CCCC[C@H]3C(=O)O[C@H](/C(C)=C/[C@@H]3CC[C@@H](O)[C@H](OC)C3)[C@H](C)[C@@H](O)CC1=O)[C@H](C)C[C@@H]2OC [Immunomycin],inactive: -0.262,inactive: 0.259,inactive: 3.7
OCC(O)C(O)C(O)C(O)COC1OC(CO)C(O)C(O)C1O (stereo not drawn),inactive: -0.0761,inactive: -0.288,active: 8.07
OC(CN1CCN(C(c2ccccc2)c2ccccc2)CC1)c1ccccc1 (stereo not drawn),active: 5.91,inactive: -0.106,inactive: -1.13
CN1CCCC(N2NC(=Cc3ccc(Cl)cc3)c3ccccc3C2=O)CC1 (stereo not drawn),inactive: -0.73,inactive: -0.825,inactive: -0.502
CCCCc1nc(Cl)c(C(=O)O)n1Cc1ccc(-c2ccccc2-c2nnn[nH]2)cc1 [Carboxylosartan],inactive: -0.365,inactive: -1.86,inactive: -0.181
CCCC(CCC)C(=O)O[C@H]1C[C@H]2CC[C@@H](C1)[N+]2(C)C [Octatropine methylbromide],inactive: -0.905,inactive: 2.44,inactive: -1.85
NS(=O)(=O)c1cccc(CCCCOCCCCCCNCC(O)c2ccc(O)c(CO)c2)c1 (stereo not drawn),inactive: -0.217,inactive: -0.213,inactive: -1.24
COc1ccc2cc([C@H](C)C(=O)O)ccc2c1 [Naproxen],,inactive: -0.487,
COc1ccc2cc([C@H](C)C(=O)O)ccc2c1 [Naproxen sodium],inactive: 0.651,inactive: 1.34,inactive: -1.63
CC/C(C(=O)O)=C(\CC)C(=O)O,inactive: -0.129,inactive: -1,inactive: -1.96
FC(F)(F)c1ccc(Nc2ncnc3cc(-c4ncccc4C(F)(F)F)ccc23)cc1,inactive: 0.165,inactive: -1.74,inactive: -1.26
CC(C)c1cccc(C(C)C)c1NC(=O)NCC1(c2ccc(N3CC=CC3)cc2)O[C@@H](C)[C@@H](C)O1 (stereo partly drawn),inactive: -1.13,inactive: -1.02,inactive: -0.983
CC1=C(C(=O)NCCc2ccccc2)SC2=NC(C)(C)CN21,inactive: -1.52,inactive: 1.79,inactive: 2.47
Nc1ccn([C@@H]2O[C@@](CO)(CCl)[C@@H](O)[C@H]2F)c(=O)n1,inactive: 0.534,inactive: -0.672,inactive: 1.49
Cc1cc([C@@H](C)Nc2ccccc2C(=O)O)c2nc(N3CCOCC3)cc(=O)n2c1,inactive: -0.64,inactive: -0.442,inactive: -1.28
CC(=O)Nc1ccc(OC(=O)c2ccccc2OC(C)=O)cc1,inactive: 0.747,inactive: -0.617,inactive: 0.923
CN(C)c1ccc(NC(=O)NS(=O)(=O)c2ccc(Cl)cc2)cc1,inactive: -1.12,inactive: -0.562,inactive: 0.535
CN(C)Cc1ccc2c(Cl)cc(Cl)c(O)c2n1,inactive: -0.872,inactive: 2.46,inactive: 0.326
NCc1ccccc1CC(=O)N[C@@H]1C(=O)N2C(C(=O)O)=C(CSc3nnnn3CC(=O)O)CS[C@H]12 [Ceforanide],inactive: -3.58,,inactive: -0.477
NCc1ccccc1CC(=O)N[C@@H]1C(=O)N2C(C(=O)O)=C(CSc3nnnn3CC(=O)O)CS[C@H]12 [ceforanide],,inactive: -2.4,
Cc1cc(/C(=C\Nc2ccc(Cl)cc2)C(=O)Nc2ccc(Cl)cc2)on1,inactive: 3.32,inactive: -0.789,inactive: 2.91
CN(C)CCOC(c1ccccc1)c1ccccc1C(C)(C)C (stereo not drawn),inactive: -0.909,inactive: -0.664,inactive: 1.09
CC[C@@H]1C(=O)N(C)c2cnc(Nc3ccc(C(=O)NC4CCN(C)CC4)cc3OC)nc2N1C1CCCC1,inactive: -1.4,active: 5.2,active: 6.28

# Reference: the supplement of paper PMC10735217
